Reference: US20180230398A1, “PERFUME SYSTEMS” (The Procter & Gamble Company, priority 2014, published 2018)

Assay: Character description (odour character) of the PRMs of Table 1
Conditions: odour character in words

For `CC(=O)[C@]1(C)CC(C)=C(C)C[C@H]1C` (racemic) [Molecule 84, 1-(R,S)-(1,3,4,6-(R,S)-tetra-methylcyclohex-3-enyl)ethanone], which Character description is on record?
The Character description was “cedarwood”.

Which Character description does the source give for `CC(=O)C1(C)CC=CCC1C` (racemic) [Molecule 85, 1-(1,6-(R,S)-dimethylcyclohex-3-enyl)ethanone] here?
The Character description was “woody, camphoraceous”.

Which Character description does the source give for `CC(C)=C1CCC(C)C1CO` (racemic) [Molecule 89, (2-(R,S)-methyl-5-(propan-2-ylidene)cyclopent-yl)methanol] here?
Its Character description is “quinoline”.

For `CCOC(=O)C1CCC(C)=C(C)C1` (racemic) [Molecule 105, (R,S)-ethyl 3,4-dimethylcyclohex-3-enecarboxylate], which Character description is on record?
Its Character description is “fruity, herbal, spicy”.

With `C=CCC(C)(CCC=C(C)C)C(C)=O` (racemic) [Molecule 119, 3-(R,S)-allyl-3,7-dimethyloct-6-en-2-one] as the molecule, how does the Character description read?
Its Character description is “floral”.

Which Character description does the source give for `C=CC[C@@](C)(CCC=C(C)C)[C@@H](C)O` (racemic) [Molecule 120, 3-(R,S)-allyl-3,7-dimethyloct-6-en-2-(R,S)-ol] here?
The Character description was “floral”.

For `COC(=O)C1(C)CCC(C)=C(C)C1` (racemic) [Molecule 122, methyl 1-(R,S),3,4-trimethyl-cyclohex-3-enecarboxylate], which Character description is on record?
Its Character description is “fresh, citrus, herbal (bergamot)”.

Which Character description does the source give for `COC(=O)C1CCC(C)=C(C)C1` (racemic) [Molecule 123, methyl 3,4-dimethylcyclohex-3-ene-(R,S)-carboxylate] here?
The Character description was “banana skin”.

With `CC1=C(C)CC(CO)CC1` (racemic) [Molecule 124, (3,4-dimethyl-(R,S)-cyclohex-3-enyl)methanol] as the molecule, how does the Character description read?
The Character description was “floral (green lily)”.

Which Character description does the source give for `CC1=C(C)CC(C(C)(C)O)CC1` (racemic) [Molecule 125, 2-(3,4-dimethylcyclohex-3-enyl)-(R,S)-propan-2-ol] here?
Its Character description is “spicy (fenugreek)”.

With `CCC1(C(=O)OC)CCC(C)=C(C)C1` (racemic) [Molecule 126, methyl 1-(R,S)-ethyl-3,4-dimethyl-cyclohex-3-enecarboxylate] as the molecule, how does the Character description read?
Its Character description is “fresh, fruity, floral”.

For `CCC1(CO)CCC(C)=C(C)C1` (racemic) [Molecule 127, (1-(R,S)-ethyl-3,4-dimethyl-cyclohex-3-enyl)methanol], which Character description is on record?
Its Character description is “floral, lilac”.

With `CCC1(C(C)O)CCC(C)=C(C)C1` (racemic) [Molecule 128, 1-(1-(R,S)-ethyl-3,4-dimethylcyclohex-3-enyl)ethanol] as the molecule, how does the Character description read?
The Character description was “floral, lilac”.

Which Character description does the source give for `CC1=C(C)CC(CO)(C(C)C)CC1` (racemic) [Molecule 129, (1-(R,S)-isopropyl-3,4-dimethyl-cyclohex-3-enyl)methanol] here?
Its Character description is “floral, aromatic”.

Which Character description does the source give for `CCCC1(C(=O)OC)CCC(C)=C(C)C1` (racemic) [Molecule 130, methyl 3,4-dimethyl-1-(R,S)-propylcyclohex-3-enecarboxylate] here?
Its Character description is “violet, fruity, herbal”.

For `CC1=C(C)CC(C)(CO)CC1` (racemic) [Molecule 131, (1-(R,S)-,3,4-trimethylcyclohex-3-enyl)methanol], which Character description is on record?
The Character description was “woody”.

For `CCCC1(CO)CCC(C)=C(C)C1` (racemic) [Molecule 132, (3,4-dimethyl-1-(R,S)-propylcyclohex-3-enyl)methanol], which Character description is on record?
Its Character description is “terpenic, pine, woody”.

With `COC(=O)C1(CC=C(C)C)CCC(C)=C(C)C1` (racemic) [Molecule 133, methyl 3,4-dimethyl-1-(R,S)-(3-methylbut-2-enyl)cyclohex-3-enecarboxylate] as the molecule, how does the Character description read?
Its Character description is “citronella, clean”.

For `CC(C)=CCC1(CO)CCC(C)=C(C)C1` (racemic) [Molecule 134, (3,4-dimethyl-1-(R,S)-(3-methylbut-2-enyl)cyclohex-3-enyl)methanol], which Character description is on record?
Its Character description is “herbal, woody, smoky”.

For `C=CCC1(CO)CCC(C)=C(C)C1` (racemic) [Molecule 135, (1-(R,S)-allyl-3,4-dimethyl-cyclohex-3-enyl)methanol], which Character description is on record?
The Character description was “pine, indolic”.

For `COC(=O)C1(C(C)C)CCC(C)=C(C)C1` (racemic) [Molecule 136, methyl 1-(R,S)-isopropyl-3,4-dimethylcyclohex-3-enecarboxylate], which Character description is on record?
Its Character description is “violet”.

With `C=CCC1(C(=O)OC)CCC(C)=C(C)C1` (racemic) [Molecule 137, methyl 1-(R,S)-allyl-3,4-dimethyl-cyclohex-3-enecarboxylate] as the molecule, how does the Character description read?
The Character description was “green cucumber”.

With `CC1=C(C)CC(C)(C(C)(C)O)CC1` (racemic) [Molecule 138, 2-(1-(R,S)-,3,4-trimethylcyclohex-3-enyl)propan-2-ol] as the molecule, how does the Character description read?
The Character description was “floral”.

Which Character description does the source give for `CNC(=O)C1(C)CCC(C)=C(C)C1` (racemic) [Molecule 139, N,1-(R,S),3,4-tetramethyl-cyclohex-3-enecarboxamide] here?
Its Character description is “solventy, fruity”.

For `CC(C)=CCC(C)(C)C(C)O` (racemic) [Molecule 141, 3,3,6-trimethylhept-5-en-2-(R,S)-ol], which Character description is on record?
The Character description was “lime, lilac”.

For `CC1OC(C)(C)CCC1(C)C` (racemic) [Molecule 142, 2,2,5,5,6-(R,S)-pentamethyl-tetrahydro-2H-pyran], which Character description is on record?
Its Character description is “camphor, green”.

With `CCCCC1(C#N)CCC(C)=C(C)C1` (racemic) [Molecule 143, 1-(R,S)-butyl-3,4-dimethyl-cyclohex-3-enecarbonitrile] as the molecule, how does the Character description read?
The Character description was “floral (rose, violet), herbal”.

Which Character description does the source give for `CCCCC1(C(C)=O)CCC(C)=C(C)C1` (racemic) [Molecule 144, 1-(1-(R,S)-butyl-3,4-dimethyl-cyclohex-3-enyl)ethanone] here?
Its Character description is “spicy”.

For `CCCCC1(C(C)O)CCC(C)=C(C)C1` (racemic) [Molecule 145, 1-(1-(R,S)-butyl-3,4-dimethylcyclohex-3-enyl)ethanol], which Character description is on record?
The Character description was “violet, calamus”.

For `CC1=C(C)CC(C(=O)OC(C)C)CC1` (racemic) [Molecule 146, (R,S)-isopropyl 3,4-dimethyl-cyclohex-3-enecarboxylate], which Character description is on record?
Its Character description is “white floral, fresh, aldehydic”.

For `CCCCC(=O)C(C)(C)CCC=C(C)C` [Molecule 1, 6,6,10-trimethylundec-9-en-5-one], which Character description is on record?
The Character description was “green (geranium), vegetable, violet”.

Which Character description does the source give for `CC(C)=CCCc1ccc(C)o1` [Molecule 2, 2-methyl-5-(4-methylpent-3-en-1-yl)furan] here?
Its Character description is “herbal, anisic, floral”.

Which Character description does the source give for `CC(=O)C(C)(CC=C(C)C)C(C)C` (stereo not shown) [Molecule 3, 3-isopropyl-3,6-dimethylhept-5-en-2-one] here?
The Character description was “herbal, aromatic”.

With `CC(C)=CCCC(C)(C)/C(C)=N/O` [Molecule 4, (E,Z)-3,3,7-trimethyloct-6-en-2-one oxime] as the molecule, how does the Character description read?
The Character description was “green, earthy”.

With `Cc1ccc(CC2=CC[C@H]3C[C@@H]2C3(C)C)o1` [Molecule 5, 2-(((1R,5S)-6,6-dimethylbicyclo [3.1.1]hept-2-en-2-yl)methyl)-5-methylfuran] as the molecule, how does the Character description read?
Its Character description is “woody, terpenic”.

For `CC1(C)[C@H]2CC=C(CCCCO)[C@@H]1C2` [Molecule 6, 4-((1R,5S)-6,6-dimethylbicyclo [3.1.1]hept-2-en-2-yl)butan-1-ol], which Character description is on record?
Its Character description is “woody, earthy”.

For `COC(=O)CCCC/C=C/C(C)C` [Molecule 8, methyl 8-methylnon-6-enoate], which Character description is on record?
The Character description was “fruity”.
